Most values lie at the floor of the assay. Slopes are relative: functional sequences can read slightly below zero.
Tested on: Saccharomyces cerevisiae PS128 hsf1 delta, HSF1(1-493) fusion
Assay: growth estimate (transactivation domain function in HSF1 fusion, heat-shock survival) (a.u. (slope of normalised read count over time)); higher = stronger growth at 37°C, i.e. more transactivation activity
Details: library: random library
Procedure: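 Random 60-nt DNA library encoding peptides of up to 20 aa, fused to the C-terminus of yeast HSF1 residues 1-493 (C-terminal TAD deleted) and expressed from the native HSF1 promoter on a CEN plasmid in hsf1-deleted S. cerevisiae PS128. Cells were selected at 37°C on -trp 5-FOA plates for 0, 2, 4, 6 and 8 days and amplicons were sequenced. Growth estimate is the slope of a robust linear fit of total-sum-normalised read counts (normalised to the first time point) over time, using at least 2 replicates. Sequences are classed functional (TAD activity) above a threshold of -0.13, set from stop-codon control sequences.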

Row | Substance | growth estimate
1 | VLFDGRVGSV | < -0.25
2 | GWIVK | < -0.25
3 | MIDAFARNSAWR | < -0.25
4 | NLGGSREVAPREAGSVNPPE | < -0.25
5 | TAMRRHLQQL | < -0.25
6 | LIMGVG | < -0.25
7 | SDVTVYEVYVSCRSGTANQQ | < -0.25
8 | AIENMPCSGRT | < -0.25
9 | KEGFSKHRRNNCGLTREH | < -0.25
10 | NRNDKTASRRTRSAYTSCDG | < -0.25
11 | YGWANSYMVP | < -0.25
12 | VNTWCTSF | < -0.25
13 | TCIRQSDVISRRRWLPCFYT | < -0.25
14 | EIVRIGPC | < -0.25
15 | VQI | < -0.25
16 | GGAGLRPPIPPWKTRSTH | < -0.25
17 | SPRDRGGDPSGVLVPIRLPG | < -0.25
18 | QTRR | < -0.25
19 | VRQPGIYS | < -0.25
20 | KQCGVSCGISPIYKTVFTMF | < -0.25
21 | RSLYGVPRPYVPRAGSREAL | < -0.25
22 | VVNVLEV | < -0.25
23 | QGREEGPPTGVR | < -0.25
24 | LCVRRSHI | < -0.25

Row | Substance | growth estimate
25 | SKATSRQRYARVSLRHRWRG | < -0.25
26 | RFTCCTLP | -0.165
27 | FINELLNYQLQHFDFSGQHS | 0.0978
28 | QGHRV | < -0.25
29 | VVRRGPSTLQVRWASTYVVS | < -0.25
30 | SCLQ | < -0.25
31 | LVES | < -0.25
32 | TSNRCARGVTPLVPRHCIQR | < -0.25
33 | STATPCWEHNIIGGKFWAVI | < -0.25
34 | DGVVMGSLAGPSCKSVYHSF | < -0.25
35 | NATHRVIAYV | < -0.25
36 | LSFDPIHIGRTAHWLPTRDP | < -0.25
37 | AINRLPKLKPSGVVYKFWRC | < -0.25
38 | LEYVHPDVQRREADLVVPCL | < -0.25
39 | CRMACCWSEQYKYG | < -0.25
40 | GRLVRWFLGDDLLTDRVLRT | -0.239
41 | RRMNYF | < -0.25
42 | GSAYGMVPTFKRHMSWCTQD | < -0.25
43 | KWVAPKSDLVCLQRIPMPGI | < -0.25
44 | RAIAHGWRLVNEEMGIGRRK | < -0.25
45 | CRKRPIDLGNSRLG | < -0.25
46 | GHSKQLSKAVVRSLTGSAPP | < -0.25
47 | YDTVQT | < -0.25
48 | EKEGNLELQRTRGTI | < -0.25

Row | Substance | growth estimate
49 | NMLPRSGHSRAPILEFW | < -0.25
50 | LAGSSGSGPSVTRIGVGPAS | < -0.25
51 | VVVRRPAEVECCESSPK | < -0.25
52 | PCSIAAC | < -0.25
53 | SDRYPYKEPVYSA | -0.233
54 | PHVYNHVKR | < -0.25
55 | SLLG | < -0.25
56 | DSQCLEPP | < -0.25
57 | GRGFHRPRVLVELQAIPGRT | < -0.25
58 | TRVWRRFKRLGGAFRVYKVF | -0.246
59 | LDIRDVGKSSSRTRGL | -0.229
60 | YCRR | < -0.25
61 | TSRQRGPGGLYGRLKSVHQR | < -0.25
62 | RRFESTVGR | < -0.25
63 | FGLGNTISP | < -0.25
64 | QPGQLGRGILRVGC | < -0.25
65 | CISRMLMVQGVMQRRPSLLH | < -0.25
66 | RASP | < -0.25
67 | AIPSQCRYKVRAKAAGSC | < -0.25
68 | CIRCMKGRISVQLAGMPVPV | < -0.25
69 | KWYVTSDSCGMSPPSFGIAP | < -0.25
70 | LYPL | < -0.25
71 | RGRGLSSEK | < -0.25
72 | LWCVA | < -0.25

Row | Substance | growth estimate
73 | STSK | < -0.25
74 | RYWVQNRTQLVLLGTEAIGP | < -0.25
75 | CGHNSHAYPRLGWRVHKTRS | < -0.25
76 | FDVIRIPQQDGPTPVDPVMT | < -0.25
77 | DRFSRR | < -0.25
78 | WMAKLKARQGPTLFIHGIFG | -0.248
79 | TSSTPFRDSGTRLPPLTVCI | < -0.25
80 | CSVGWWTVSLGIVNLRTEQS | < -0.25
81 | SSGRPMK | < -0.25
82 | NCVGFAIISG | < -0.25
83 | TRDVAERIKSAGPASTALWL | < -0.25
84 | LAAHWIFRPKDRNRGVHDAM | < -0.25
85 | PGFCDPDESDTGNEMLDNLA | < -0.25
86 | KTRVSRFQCPARQVVRIFRG | < -0.25
87 | LASSAQWCVLNNGALSCRVL | -0.243
88 | YIQ | < -0.25
89 | RNWHTVKRRDKEPLLLPMTR | < -0.25
90 | KVRVSVVADPKCKI | < -0.25
91 | LSLNTYGAINGA | < -0.25
92 | VTFRDDVSHTVPRRMRTNTA | < -0.25
93 | LGCHGLRVGTGYRHG | < -0.25
94 | SGSRPREHKLNLNVSRKFCG | < -0.25
95 | QYRTSGDL | < -0.25
96 | PTVMTSARTGSVRIGSGIRT | < -0.25

Row | Substance | growth estimate
97 | SGEEQKVGLM | -0.245
98 | RSNVSLDGLIWTEICFSEAG | < -0.25
99 | YPLASNTVMQAVDQQRTLQR | < -0.25
100 | ALVVSGRWVLRPAW | < -0.25
101 | SFVCLCLAY | < -0.25
102 | VKTVNRDLRPP | < -0.25
103 | SYRMPGECS | < -0.25
104 | CMAEPPRLID | < -0.25
105 | RSIKGLPLELQDGAPPCSFQ | -0.239
106 | QAR | < -0.25
107 | RVYGSGRDPSGWIVLYPECR | < -0.25
108 | LGERDQNRHG | < -0.25
109 | CPITA | < -0.25
110 | GSGRAYMR | < -0.25
111 | VMVRSERH | < -0.25
112 | RIVTYQTGLKCVGVDEMQQT | < -0.25
113 | RCYKPPQSPAGRELYSSCVV | < -0.25
114 | FTYVTGPPSLPLQYSEINP | < -0.25
115 | SVNGRCNHLRWSLSSGRVD | < -0.25
116 | ASDVVWGEGP | < -0.25
117 | VMQRVMPSSRRS | < -0.25
118 | SLVRHKTAPRRLHGTGSFGL | < -0.25
119 | KRWTVKGKDRKWHMQCSLTR | < -0.25
120 | DQDST | < -0.25

Two entries from above, as a markdown table:

| Row | Substance | growth estimate |
| --- | --- | --- |
| 89 | RNWHTVKRRDKEPLLLPMTR | < -0.25 |
| 109 | CPITA | < -0.25 |

Carrying on.

Row | Substance | growth estimate
121 | VRSNESIQALVFHSDLYS | < -0.25
122 | SREVVLNEAS | < -0.25
123 | HVFTAFR | < -0.25
124 | KRTLCNLIGRKPDPPLFPAA | -0.246
125 | SMGRRADENQAASRR | < -0.25
126 | FPRLVVIGYSSFDTRSHLFS | < -0.25
127 | FTGNCQAFLRAGTTSVALSL | -0.143
128 | RETDRT | < -0.25
129 | AQSTKK | < -0.25
130 | QFCLSCLGSDEWVIRDVVAI | < -0.25
131 | QGNRSFGCIVYASYSGTSLE | < -0.25
132 | WQFAVSSYSELAGPYRVISL | < -0.25
133 | NCLSRLCSRNDPLLRGSCGG | < -0.25
134 | VRIRVDEAYLLCREYRR | < -0.25
135 | IGLLRSLK | < -0.25
136 | SLQWRTCVSE | < -0.25
137 | AYGDTACLQLLGNSDVLSAA | < -0.25
138 | RVVPPPNGKHGRCWFRERYC | < -0.25
139 | KLEFLVRCVKERAVGA | < -0.25
140 | NPSPSTVIGGPQRPSQPVRG | < -0.25
141 | VGSRGSASKYLSSQGS | < -0.25
142 | SERIY | < -0.25
143 | NIVQRVGGIILDRERGRDA | < -0.25
144 | CHPLR | < -0.25

Some of the entries so far, in markdown:

| Row | Substance | growth estimate |
| --- | --- | --- |
| 138 | RVVPPPNGKHGRCWFRERYC | < -0.25 |
| 139 | KLEFLVRCVKERAVGA | < -0.25 |
| 140 | NPSPSTVIGGPQRPSQPVRG | < -0.25 |
| 141 | VGSRGSASKYLSSQGS | < -0.25 |
| 142 | SERIY | < -0.25 |

Remaining list, next part:

Row | Substance | growth estimate
145 | SWVGRVGNVFYALWPWSRNR | < -0.25
146 | VRLGLGRSSRLRSSWPCASR | < -0.25
147 | QSDWLHVDMFRHAVLPQ | < -0.25
148 | GLSFQFSCGQCRWSLRRK | < -0.25
149 | KGQCPRLASNLDTGSTTASR | < -0.25
150 | SDERRVLAGKSRGLGTHSGS | < -0.25
151 | ERRASRYGSIELNVEGGLSL | < -0.25
152 | ELLRISMHLRLERDPWPTCV | < -0.25
153 | HSEDSVTR | < -0.25
154 | ADHSLRRGQATLFEFLHVY | < -0.25
155 | QAASVQTASSHKQGTITRCI | < -0.25
156 | ALAVSGIVLAKLGVNAS | < -0.25
157 | LAGLDFKGR | < -0.25
158 | SLSEGALRYLSRSATRPSIV | < -0.25
159 | LCSARLCHRSLNARGVDFPG | < -0.25
160 | LMDKNFLIR | < -0.25
161 | DVHKGANAPPPFRDLNPLTR | < -0.25
162 | HTCQAKIVT | < -0.25
163 | VCECIFLCRLEQIPVLIMLS | < -0.25
164 | QVNSVQ | < -0.25
165 | RERCPTQV | < -0.25
166 | ECSCKPRLRPASPL | < -0.25
167 | ATHL | < -0.25
168 | RRCLHARVHEVPEAILMITV | < -0.25

Row | Substance | growth estimate
169 | VALQDRYDNCTDRHSLT | < -0.25
170 | VSLRGEDRAEGVPPQ | < -0.25
171 | PKNSNPFIRKPLEMLQIVAP | < -0.25
172 | YKRARYPRVSPSVFTAGRCE | < -0.25
173 | KGPPQQVFAWVLRTSWPALE | < -0.25
174 | KNGTYEIGES | < -0.25
175 | LPGTGVCFYKKE | < -0.25
176 | AGTSKSS | < -0.25
177 | LGNLCLSGLINSNVSYVFGG | < -0.25
178 | NHLCSRLGIVDAEAPGAVVR | < -0.25
179 | RSEWRLVISDST | < -0.25
180 | IRMASP | < -0.25
181 | YTSGGPFSERVSLPLSLSAV | < -0.25
182 | KQCHPISETSAGTEIRSETP | < -0.25
183 | MIE | < -0.25
184 | RKARGPLSKGCIFLGATTHL | < -0.25
185 | VGRIRGEVGRIKISLPFMVG | < -0.25
186 | LACKPGV | < -0.25
187 | WEGFARYKSDNEGGAEHPFE | < -0.25
188 | SVYSDWGYGTCL | < -0.25
189 | TVRFHGLL | < -0.25
190 | FCSLAVA | < -0.25
191 | ACPHERGSADFIPPIADNDL | < -0.25
192 | SFGFVR | < -0.25
